Assay results published in paper PMC13473141.
Results are given in words; binding and its absence hold for the method and conditions named. Binding seen in cells or lysates may run through a third protein. Here binding means that the protein was enriched with, or labelled near, the bait; the list need not be complete. Sequences can lack the tags named with a protein.

Protein sequences, listed by entry. Tags and fused reporters are not part of them.
UniProt Q02880: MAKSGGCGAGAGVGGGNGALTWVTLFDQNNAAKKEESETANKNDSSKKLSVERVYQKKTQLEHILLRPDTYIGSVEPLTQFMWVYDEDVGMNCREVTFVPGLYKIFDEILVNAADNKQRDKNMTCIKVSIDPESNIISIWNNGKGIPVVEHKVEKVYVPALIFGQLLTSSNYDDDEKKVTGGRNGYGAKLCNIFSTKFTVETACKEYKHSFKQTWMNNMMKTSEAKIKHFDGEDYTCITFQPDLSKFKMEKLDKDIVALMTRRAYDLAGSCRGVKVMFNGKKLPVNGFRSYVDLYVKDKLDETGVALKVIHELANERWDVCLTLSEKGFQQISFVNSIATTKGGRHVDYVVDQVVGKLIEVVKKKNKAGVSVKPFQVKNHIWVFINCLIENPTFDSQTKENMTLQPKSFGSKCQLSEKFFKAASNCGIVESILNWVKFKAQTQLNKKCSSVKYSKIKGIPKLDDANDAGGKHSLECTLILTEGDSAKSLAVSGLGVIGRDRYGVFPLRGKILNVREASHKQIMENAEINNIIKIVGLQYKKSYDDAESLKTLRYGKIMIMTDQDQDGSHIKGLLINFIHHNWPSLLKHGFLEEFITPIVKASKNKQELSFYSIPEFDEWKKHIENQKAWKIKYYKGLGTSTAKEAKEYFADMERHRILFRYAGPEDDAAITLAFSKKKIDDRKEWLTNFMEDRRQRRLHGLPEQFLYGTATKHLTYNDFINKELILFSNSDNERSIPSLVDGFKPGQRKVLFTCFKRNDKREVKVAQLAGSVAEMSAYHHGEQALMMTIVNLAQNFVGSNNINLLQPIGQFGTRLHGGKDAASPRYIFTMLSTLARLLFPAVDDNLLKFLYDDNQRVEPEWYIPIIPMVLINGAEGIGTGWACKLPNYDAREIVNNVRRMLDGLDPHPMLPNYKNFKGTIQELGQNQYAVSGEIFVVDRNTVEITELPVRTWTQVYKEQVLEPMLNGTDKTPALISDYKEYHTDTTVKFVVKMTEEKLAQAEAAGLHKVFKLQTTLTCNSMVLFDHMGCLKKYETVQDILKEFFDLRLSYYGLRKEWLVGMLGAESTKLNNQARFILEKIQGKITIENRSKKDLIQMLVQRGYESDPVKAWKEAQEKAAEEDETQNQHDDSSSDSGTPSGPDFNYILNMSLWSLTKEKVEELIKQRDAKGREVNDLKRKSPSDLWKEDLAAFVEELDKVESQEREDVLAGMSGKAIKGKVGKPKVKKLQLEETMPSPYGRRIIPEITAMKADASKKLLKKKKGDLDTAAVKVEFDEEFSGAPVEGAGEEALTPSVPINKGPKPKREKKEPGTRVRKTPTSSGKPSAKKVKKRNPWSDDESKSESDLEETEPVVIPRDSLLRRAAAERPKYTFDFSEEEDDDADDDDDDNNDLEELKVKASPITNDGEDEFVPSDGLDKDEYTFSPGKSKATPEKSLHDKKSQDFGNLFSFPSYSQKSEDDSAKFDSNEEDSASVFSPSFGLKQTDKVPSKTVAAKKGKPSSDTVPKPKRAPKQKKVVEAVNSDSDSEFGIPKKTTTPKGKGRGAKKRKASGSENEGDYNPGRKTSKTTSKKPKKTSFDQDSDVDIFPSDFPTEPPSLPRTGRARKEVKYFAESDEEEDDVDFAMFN
UniProt Q70CQ3: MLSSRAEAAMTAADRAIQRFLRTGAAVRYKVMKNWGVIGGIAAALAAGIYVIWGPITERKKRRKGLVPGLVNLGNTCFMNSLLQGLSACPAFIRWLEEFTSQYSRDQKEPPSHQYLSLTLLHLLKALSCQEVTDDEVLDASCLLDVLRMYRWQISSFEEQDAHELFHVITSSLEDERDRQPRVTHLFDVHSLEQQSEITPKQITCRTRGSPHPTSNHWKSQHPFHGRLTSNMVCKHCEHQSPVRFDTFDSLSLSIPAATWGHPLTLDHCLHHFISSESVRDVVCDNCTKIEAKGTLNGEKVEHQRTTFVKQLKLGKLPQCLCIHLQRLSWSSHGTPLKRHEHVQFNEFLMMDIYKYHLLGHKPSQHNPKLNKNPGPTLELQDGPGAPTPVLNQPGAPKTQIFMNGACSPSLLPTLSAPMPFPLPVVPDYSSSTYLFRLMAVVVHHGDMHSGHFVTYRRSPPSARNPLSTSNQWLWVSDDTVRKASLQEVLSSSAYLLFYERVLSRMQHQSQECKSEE
UniProt P46736: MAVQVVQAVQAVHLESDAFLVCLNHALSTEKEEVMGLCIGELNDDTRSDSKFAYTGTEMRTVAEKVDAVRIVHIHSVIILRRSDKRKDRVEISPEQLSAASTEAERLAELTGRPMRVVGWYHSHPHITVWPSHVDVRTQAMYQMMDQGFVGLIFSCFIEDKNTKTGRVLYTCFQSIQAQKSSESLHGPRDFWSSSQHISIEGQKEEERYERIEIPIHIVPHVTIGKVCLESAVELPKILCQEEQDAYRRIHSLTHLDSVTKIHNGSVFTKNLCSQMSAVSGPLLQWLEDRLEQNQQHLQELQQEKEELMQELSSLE
UniProt P51784: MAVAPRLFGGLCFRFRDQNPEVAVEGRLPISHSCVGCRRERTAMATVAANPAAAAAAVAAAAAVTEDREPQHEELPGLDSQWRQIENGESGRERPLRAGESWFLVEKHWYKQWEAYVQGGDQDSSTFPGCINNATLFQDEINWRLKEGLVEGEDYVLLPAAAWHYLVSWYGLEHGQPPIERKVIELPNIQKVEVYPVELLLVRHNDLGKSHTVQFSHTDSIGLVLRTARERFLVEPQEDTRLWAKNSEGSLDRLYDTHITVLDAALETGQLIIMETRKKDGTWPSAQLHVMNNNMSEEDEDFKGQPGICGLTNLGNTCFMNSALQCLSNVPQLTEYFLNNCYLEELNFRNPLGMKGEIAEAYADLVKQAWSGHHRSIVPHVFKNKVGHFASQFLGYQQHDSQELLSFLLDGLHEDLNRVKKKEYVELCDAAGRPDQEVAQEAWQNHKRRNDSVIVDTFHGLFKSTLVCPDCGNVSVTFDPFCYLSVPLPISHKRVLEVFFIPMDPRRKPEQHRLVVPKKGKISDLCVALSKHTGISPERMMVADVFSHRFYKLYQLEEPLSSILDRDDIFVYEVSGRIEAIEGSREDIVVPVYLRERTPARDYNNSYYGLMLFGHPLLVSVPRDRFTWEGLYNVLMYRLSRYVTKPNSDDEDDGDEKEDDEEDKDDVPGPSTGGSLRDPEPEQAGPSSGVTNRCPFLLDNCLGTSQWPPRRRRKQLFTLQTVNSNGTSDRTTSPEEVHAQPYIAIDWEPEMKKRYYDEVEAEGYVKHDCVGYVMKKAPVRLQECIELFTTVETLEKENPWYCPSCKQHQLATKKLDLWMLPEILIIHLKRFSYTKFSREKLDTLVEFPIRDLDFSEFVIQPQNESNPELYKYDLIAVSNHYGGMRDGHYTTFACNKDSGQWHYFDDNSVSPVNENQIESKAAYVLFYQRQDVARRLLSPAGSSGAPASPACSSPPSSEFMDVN
UniProt Q9NXR7: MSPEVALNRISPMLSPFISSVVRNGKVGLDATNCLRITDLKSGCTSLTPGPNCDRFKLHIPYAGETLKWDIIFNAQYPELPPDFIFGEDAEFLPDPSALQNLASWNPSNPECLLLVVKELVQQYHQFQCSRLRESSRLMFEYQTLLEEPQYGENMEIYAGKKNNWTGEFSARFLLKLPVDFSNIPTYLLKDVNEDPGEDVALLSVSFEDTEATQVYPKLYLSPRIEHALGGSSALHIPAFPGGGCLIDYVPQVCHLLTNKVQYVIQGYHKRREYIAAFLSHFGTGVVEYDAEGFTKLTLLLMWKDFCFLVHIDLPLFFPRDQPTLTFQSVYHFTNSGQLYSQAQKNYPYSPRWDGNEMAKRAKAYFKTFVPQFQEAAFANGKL
UniProt Q9NWV8: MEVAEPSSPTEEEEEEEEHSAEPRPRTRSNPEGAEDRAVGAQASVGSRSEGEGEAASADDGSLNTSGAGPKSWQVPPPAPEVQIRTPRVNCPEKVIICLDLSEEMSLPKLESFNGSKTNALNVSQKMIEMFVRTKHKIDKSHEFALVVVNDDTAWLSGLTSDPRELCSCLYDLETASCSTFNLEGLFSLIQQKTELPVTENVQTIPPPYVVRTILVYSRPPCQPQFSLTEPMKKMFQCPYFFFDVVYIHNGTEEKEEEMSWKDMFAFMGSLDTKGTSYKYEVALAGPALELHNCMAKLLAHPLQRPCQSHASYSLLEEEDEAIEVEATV
UniProt Q93009: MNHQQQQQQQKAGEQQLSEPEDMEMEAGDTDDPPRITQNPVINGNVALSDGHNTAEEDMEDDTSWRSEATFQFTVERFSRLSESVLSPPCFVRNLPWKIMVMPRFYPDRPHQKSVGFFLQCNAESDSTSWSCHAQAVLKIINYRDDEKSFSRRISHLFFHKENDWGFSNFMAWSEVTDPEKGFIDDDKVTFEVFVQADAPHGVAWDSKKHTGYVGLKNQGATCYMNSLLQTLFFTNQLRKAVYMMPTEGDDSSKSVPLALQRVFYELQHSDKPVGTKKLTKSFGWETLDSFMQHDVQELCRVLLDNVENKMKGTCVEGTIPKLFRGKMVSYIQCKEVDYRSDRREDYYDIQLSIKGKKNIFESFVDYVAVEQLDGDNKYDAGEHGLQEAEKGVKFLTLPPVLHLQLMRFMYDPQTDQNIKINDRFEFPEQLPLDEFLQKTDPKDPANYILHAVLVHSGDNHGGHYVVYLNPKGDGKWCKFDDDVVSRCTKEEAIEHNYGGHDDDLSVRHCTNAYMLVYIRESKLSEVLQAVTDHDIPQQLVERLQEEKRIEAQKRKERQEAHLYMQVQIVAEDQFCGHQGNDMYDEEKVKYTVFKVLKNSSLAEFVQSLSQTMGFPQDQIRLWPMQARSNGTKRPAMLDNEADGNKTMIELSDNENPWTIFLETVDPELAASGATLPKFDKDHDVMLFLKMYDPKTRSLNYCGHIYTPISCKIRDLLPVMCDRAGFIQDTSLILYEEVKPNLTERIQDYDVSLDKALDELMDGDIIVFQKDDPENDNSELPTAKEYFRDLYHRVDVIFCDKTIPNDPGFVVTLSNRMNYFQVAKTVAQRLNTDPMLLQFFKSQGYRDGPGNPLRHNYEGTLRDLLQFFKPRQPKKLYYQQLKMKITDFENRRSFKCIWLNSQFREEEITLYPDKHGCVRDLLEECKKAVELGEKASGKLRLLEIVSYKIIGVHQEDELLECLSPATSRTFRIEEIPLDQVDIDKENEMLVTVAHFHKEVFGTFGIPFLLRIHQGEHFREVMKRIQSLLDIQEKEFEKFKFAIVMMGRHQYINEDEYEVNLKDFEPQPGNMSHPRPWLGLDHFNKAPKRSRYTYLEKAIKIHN
UniProt Q96RL1: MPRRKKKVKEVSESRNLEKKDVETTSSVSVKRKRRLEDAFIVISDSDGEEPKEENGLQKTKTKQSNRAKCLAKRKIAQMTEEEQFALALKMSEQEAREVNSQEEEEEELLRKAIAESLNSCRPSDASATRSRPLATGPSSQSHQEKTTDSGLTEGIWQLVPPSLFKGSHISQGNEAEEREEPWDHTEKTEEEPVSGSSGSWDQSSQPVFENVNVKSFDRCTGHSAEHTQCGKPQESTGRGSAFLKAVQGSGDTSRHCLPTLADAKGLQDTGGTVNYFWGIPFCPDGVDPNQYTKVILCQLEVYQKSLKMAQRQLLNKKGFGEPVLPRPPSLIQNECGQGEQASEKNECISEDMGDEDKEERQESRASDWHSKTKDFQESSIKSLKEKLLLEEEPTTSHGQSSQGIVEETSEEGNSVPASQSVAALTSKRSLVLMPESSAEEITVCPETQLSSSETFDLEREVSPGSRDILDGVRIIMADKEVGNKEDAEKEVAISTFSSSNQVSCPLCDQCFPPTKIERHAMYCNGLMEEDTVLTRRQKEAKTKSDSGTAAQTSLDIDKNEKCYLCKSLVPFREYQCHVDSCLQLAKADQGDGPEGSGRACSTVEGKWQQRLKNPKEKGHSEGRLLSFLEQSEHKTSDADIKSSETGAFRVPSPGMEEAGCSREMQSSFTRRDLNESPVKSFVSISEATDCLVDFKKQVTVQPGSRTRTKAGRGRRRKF

T1: FLAG-TOPORS (UniProt Q9NS56)
T1 sequence: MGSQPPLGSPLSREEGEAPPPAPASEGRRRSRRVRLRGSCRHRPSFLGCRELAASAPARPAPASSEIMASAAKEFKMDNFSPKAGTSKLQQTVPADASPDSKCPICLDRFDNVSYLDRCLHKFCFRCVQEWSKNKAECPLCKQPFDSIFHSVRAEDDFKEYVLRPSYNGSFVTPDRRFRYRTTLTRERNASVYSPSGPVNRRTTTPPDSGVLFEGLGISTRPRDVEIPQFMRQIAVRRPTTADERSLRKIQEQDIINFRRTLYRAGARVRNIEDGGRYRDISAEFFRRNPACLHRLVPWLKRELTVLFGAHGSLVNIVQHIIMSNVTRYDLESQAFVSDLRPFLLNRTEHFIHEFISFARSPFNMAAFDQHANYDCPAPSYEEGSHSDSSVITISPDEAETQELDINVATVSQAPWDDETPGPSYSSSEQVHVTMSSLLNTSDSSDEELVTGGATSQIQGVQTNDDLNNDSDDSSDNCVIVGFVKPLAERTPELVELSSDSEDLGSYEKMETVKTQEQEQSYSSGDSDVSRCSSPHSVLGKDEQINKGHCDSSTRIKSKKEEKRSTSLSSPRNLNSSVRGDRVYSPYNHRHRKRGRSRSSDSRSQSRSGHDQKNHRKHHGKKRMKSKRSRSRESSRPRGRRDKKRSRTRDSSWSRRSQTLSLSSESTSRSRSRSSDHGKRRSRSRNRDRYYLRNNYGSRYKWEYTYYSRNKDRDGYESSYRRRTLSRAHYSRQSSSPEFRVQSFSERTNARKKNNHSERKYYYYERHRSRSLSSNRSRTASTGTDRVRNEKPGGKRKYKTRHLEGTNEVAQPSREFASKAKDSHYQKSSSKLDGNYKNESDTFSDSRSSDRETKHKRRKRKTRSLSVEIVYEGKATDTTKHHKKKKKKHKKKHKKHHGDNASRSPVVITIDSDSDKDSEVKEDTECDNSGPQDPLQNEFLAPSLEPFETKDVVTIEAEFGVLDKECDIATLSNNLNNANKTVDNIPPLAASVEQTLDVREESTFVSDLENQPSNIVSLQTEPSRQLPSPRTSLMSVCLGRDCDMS

B1: SENP2 (enzyme, UniProt Q9HC62 1-589)
chain: MYRWLVRILGTIFRFCDRSVPPARALLKRRRSDSTLFSTVDTDEIPAKRPRLDCFIHQVKNSLYNAASLFGFPFQLTTKPMVTSACNGTRNVAPSGEVFSNSSSCELTGSGSWNNMLKLGNKSPNGISDYPKIRVTVTRDQPRRVLPSFGFTLNSEGCNRRPGGRRHSKGNPESSLMWKPQEQAVTEMISEESGKGLRRPHCTVEEGVQKEEREKYRKLLERLKESGHGNSVCPVTSNYHSSQRSQMDTLKTKGWGEEQNHGVKTTQFVPKQYRLVETRGPLCSLRSEKRCSKGKITDTETMVGIRFENESRRGYQLEPDLSEEVSARLRLGSGSNGLLRRKVSIIETKEKNCSGKERDRRTDDLLELTEDMEKEISNALGHGPQDEILSSAFKLRITRGDIQTLKNYHWLNDEVINFYMNLLVERNKKQGYPALHVFSTFFYPKLKSGGYQAVKRWTKGVNLFEQEIILVPIHRKVHWSLVVIDLRKKCLKYLDSMGQKGHRICEILLQYLQDESKTKRNSDLNLLEWTHHSMKPHEIPQQLNGSDCGMFTCKYADYISRDKPITFTQHQMPLFRKKMVWEILHQQLL

These molecules were tested against T1, FLAG-TOPORS (assay: affinity purification with mass spectrometry; FLAG-TOPORS or empty vector expressed in HEK293T in triplicate; FLAG immunoprecipitation, on-bead trypsin digestion, LC-MS/MS, label-free quantitation).

binding, binds:
topoisomerase 2B (from UniProt Q02880 1-1626) (enzyme), USP30 (from UniProt Q70CQ3 1-517) (enzyme), BRCC3/BRCC36 (from UniProt P46736 1-316) (enzyme), USP11 (from UniProt P51784 1-963) (enzyme), BRE/BRCC45 (from UniProt Q9NXR7 1-383), BABAM1/NBA1/MERIT40 (from UniProt Q9NWV8 1-329), USP7 (endogenous) (from UniProt Q93009 1-1102) (enzyme), RAP80 (from UniProt Q96RL1 1-719), B1
